Paper PMC5626400
These are yes or no findings as the source states them, for the method shown. In cells and extracts the contact can be indirect. Some binding calls cover weakened binding; strength is not graded here.

Amino acid sequences for entries named in this document (tags omitted). Residues count along the entry.
UniProt O00744, residues 29-389: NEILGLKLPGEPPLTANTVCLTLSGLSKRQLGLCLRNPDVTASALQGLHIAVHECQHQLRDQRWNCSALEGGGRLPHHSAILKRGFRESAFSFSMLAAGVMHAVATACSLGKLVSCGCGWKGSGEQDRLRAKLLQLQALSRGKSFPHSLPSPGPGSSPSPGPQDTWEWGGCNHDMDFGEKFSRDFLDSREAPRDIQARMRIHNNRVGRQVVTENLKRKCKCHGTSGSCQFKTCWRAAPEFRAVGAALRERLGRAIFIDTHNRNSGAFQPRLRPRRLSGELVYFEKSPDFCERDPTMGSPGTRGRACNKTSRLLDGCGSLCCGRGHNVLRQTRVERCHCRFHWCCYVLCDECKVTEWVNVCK

T1: follistatin-like 1 (FSTL1) (human (endogenous in A253)) (UniProt Q12841)
T1 sequence: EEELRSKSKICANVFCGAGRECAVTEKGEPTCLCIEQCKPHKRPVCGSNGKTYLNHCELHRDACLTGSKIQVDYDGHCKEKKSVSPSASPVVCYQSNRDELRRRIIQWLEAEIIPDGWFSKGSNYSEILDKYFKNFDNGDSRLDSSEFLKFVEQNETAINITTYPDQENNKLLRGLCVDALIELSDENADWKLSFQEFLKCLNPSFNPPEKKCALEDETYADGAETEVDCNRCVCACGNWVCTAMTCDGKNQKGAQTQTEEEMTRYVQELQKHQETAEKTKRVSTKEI

B1: Wnt7a (protein, UniProt O00755 32-349)
chain: LGASIICNKIPGLAPRQRAICQSRPDAIIVIGEGSQMGLDECQFQFRNGRWNCSALGERTVFGKELKVGSREAAFTYAIIAAGVAHAITAACTQGNLSDCGCDKEKQGQYHRDEGWKWGGCSADIRYGIGFAKVFVDAREIKQNARTLMNLHNNEAGRKILEENMKLECKCHGVSGSCTTKTCWTTLPQFRELGYVLKDKYNEAVHVEPVRASRNKRPTFLKIKKPLSYRKPMDTDLVYIEKSPNYCEEDPVTGSVGTQGRACNKTAPQASGCDLMCCGRGYNTHQYARVWQCNCKFHWCCYVKCNTCSERTEMYTCK
B2: Wnt4 (protein, UniProt P56705 23-351)
chain: SNWLYLAKLSSVGSISEEETCEKLKGLIQRQVQMCKRNLEVMDSVRRGAQLAIEECQYQFRNRRWNCSTLDSLPVFGKVVTQGTREAAFVYAISSAGVAFAVTRACSSGELEKCGCDRTVHGVSPQGFQWSGCSDNIAYGVAFSQSFVDVRERSKGASSSRALMNLHNNEAGRKAILTHMRVECKCHGVSGSCEVKTCWRAVPPFRQVGHALKEKFDGATEVEPRRVGSSRALVPRNAQFKPHTDEDLVYLEPSPDFCEQDMRSGVLGTRGRTCNKTSKAIDGCELLCCGRGFHTAQVELAERCSCKFHWCCFVKCRQCQRLVELHTCR
B3: Wnt5a (protein, UniProt P41221 62-380)
chain: IIGAQPLCSQLAGLSQGQKKLCHLYQDHMQYIGEGAKTGIKECQYQFRHRRWNCSTVDNTSVFGRVMQIGSRETAFTYAVSAAGVVNAMSRACREGELSTCGCSRAARPKDLPRDWLWGGCGDNIDYGYRFAKEFVDARERERIHAKGSYESARILMNLHNNEAGRRTVYNLADVACKCHGVSGSCSLKTCWLQLADFRKVGDALKEKYDSAAAMRLNSRGKLVQVNSRFNSPTTQDLVYIDPSPDYCVRNESTGSLGTQGRLCNKTSEGMDGCELMCCGRGYDQFKTVQTERCHCKFHWCCYVKCKKCTEIVDQFVCK

What follows are molecules tested against T1, follistatin-like 1 (FSTL1) (human (endogenous in A253)) (assay: co-IP; endogenous proteins from HNSCC cell lysates (RIPA buffer, sonicated), Pierce co-immunoprecipitation kit, Western blot; control or shDIAPH1 cells for the DIAPH1 and Arpin precipitations; IgG control for the FSTL1 precipitation).
In the case of Wnt10b (from UniProt O00744 29-389), the binding is reported as “no binding”.
B1 was tested, and the binding was “binds”.
With B2 the binding was “no binding”.
For B3, the binding was “no binding”.
